Reference: patent US12234504B1 (priority 2023, dated 2025)
At least one structure is not confirmed: it was looked up by name or label, or the drawing left a doubt.

Amino acid sequences for entries named in this document (tags omitted).
UniProt P0AES4, whole entry: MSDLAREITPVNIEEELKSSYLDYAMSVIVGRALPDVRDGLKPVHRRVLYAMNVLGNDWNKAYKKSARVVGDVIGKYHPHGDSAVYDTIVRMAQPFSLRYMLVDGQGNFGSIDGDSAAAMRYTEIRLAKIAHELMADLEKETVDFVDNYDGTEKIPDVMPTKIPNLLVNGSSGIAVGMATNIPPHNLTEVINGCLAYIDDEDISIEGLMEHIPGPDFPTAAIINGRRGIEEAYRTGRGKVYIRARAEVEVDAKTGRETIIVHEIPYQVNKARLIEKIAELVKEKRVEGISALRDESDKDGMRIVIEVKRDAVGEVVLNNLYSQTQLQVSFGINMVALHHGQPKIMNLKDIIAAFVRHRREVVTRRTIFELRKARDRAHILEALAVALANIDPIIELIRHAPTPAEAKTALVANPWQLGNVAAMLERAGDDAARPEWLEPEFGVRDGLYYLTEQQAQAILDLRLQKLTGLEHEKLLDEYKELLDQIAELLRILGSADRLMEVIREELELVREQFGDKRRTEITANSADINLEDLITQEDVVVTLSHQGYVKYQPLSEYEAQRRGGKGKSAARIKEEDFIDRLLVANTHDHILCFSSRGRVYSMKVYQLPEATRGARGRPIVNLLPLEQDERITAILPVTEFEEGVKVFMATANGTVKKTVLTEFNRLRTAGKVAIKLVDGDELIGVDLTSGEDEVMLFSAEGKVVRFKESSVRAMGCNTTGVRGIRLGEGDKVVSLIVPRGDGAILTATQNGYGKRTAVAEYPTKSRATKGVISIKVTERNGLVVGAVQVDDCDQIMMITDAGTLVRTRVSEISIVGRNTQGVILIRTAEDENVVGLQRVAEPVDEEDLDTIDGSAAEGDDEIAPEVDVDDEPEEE

Experiments:
E. coli DNA gyrase [1] = target: T1, E. coli DNA gyrase (Escherichia coli, UniProt P0AES4+P0AES6); assay type: biochemical; details: 50 μM compound
T1 construct: made in house
Procedure: FIGS. 6A-6B. High throughput screening (HTS) pilot screen of the 50-compound library for E. coli DNA gyrase poisoning inhibitors in duplicate. A final compound concentration of 50 μM was used. […] (A) Fluorescence raw data.
A Fluorescence-Based, T5 Exonuclease-Amplified DNA Cleavage Assay to Identify Poisoning Inhibitors for E. coli DNA Gyrase.
For negative control experiments, 1% DMSO was used. […] 0.5 mg/mL of proteinase K was then added to the reaction mixtures to digest DNA gyrase at 50° C. for 30 min. After the DNA samples were diluted 100 times using 1×NEB buffer 4 (20 mM Tris-Acetate, pH 7.9, 50 mM KAc, 10 mM Mg(AC)2, and 1 mM DTT), 30 μL of each DNA sample was transfer to a well of a 384-well plate. 200 nM of T5 exonuclease was used to digest DNA fragment for 2 hours at 37° C. 1×SYBR™ Green was added to all DNA samples. Fluorescence intensity was measured using a Biotek microplate reader with excitation wavelength of 497 nm and emission wavelength of 525 nm.
Z′ was calculated by the following equation: […]

E. coli DNA gyrase [2] = target: T1, E. coli DNA gyrase; assay type: biochemical; details: validation with 10 antibiotics, FIG. 5A

Compound | Fluorescent Intensity #2 (E. coli DNA gyrase [1]; 50-compound library screen, duplicate 2, low fluorescence = gyrase poison) | fluorescence intensity of the DNA samples (in words) (E. coli DNA gyrase [2]) | hit in HTS pilot screen (inhibition ≥50% cutoff) (E. coli DNA gyrase [1]; duplicate)
NC[C@H]1O[C@H](O[C@H]2[C@H](O)[C@@H](O[C@H]3O[C@H](CO)[C@@H](O)[C@H](N)[C@H]3O)[C@H](N)C[C@@H]2N)[C@H](O)[C@@H](O)[C@@H]1O [kanamycin] | 10024 | high | 
C[C@H]1COc2c(N3CCN(C)CC3)c(F)cc3c(=O)c(C(=O)O)cn1c23 [levofloxacin] |  |  | hits
